Square brackets hold non-standard residues; d marks the D form. Ends that are not written are not given here. * marks the point of attachment. Arg(NO2) = N=C(NCCC[C@H](N)C(=O)O)N[N+](=O)[O-]; Cbz = O=C(OCc1ccccc1)*; Boc = CC(C)(C)OC(=O)*; NHNH2 = NN*
Assay: general procedure: solution-phase peptide synthesis; BOP; active esters (ONp, ONSu, OTCP, ONb) with HOBT; NEM
Settings: for purity (crude or final not stated) / crude HPLC purity: HPLC (EPP)

Row | Substance | step yield (coupling step) [%] | step yield (late stage modification step) [%] | other results
1 | Boc-Arg(HCl)-Lys(Z)-Val-Leu-Gly-OCH3 | 78.7 |  | 
2 | Boc-Arg(MTS)-Lys(Z)-Leu-Leu-Gln-Asp(0Bzl)-Ile-Met-Ser-Arg-Gln-Gln-Gly-Glu(0Bzl)-Ser-Asn-Gln-Glu(0Bzl)-Arg-Gly-Ala-Arg-Ala-Arg-Leu, NH2, HCl | 80.4 |  | 
3 | Boc-FTNS-OMe | 93.5 |  | 
4 | Boc-Gln-Asp(0Bzl)-Ile-Met-NH-NH-Troc | 80 |  | 
5 | Boc-Gln-Glu(0Bzl)-Arg(HCl)-Gly-OH | 94.9 |  | purity (crude or final not stated) (coupling step): EPP=96.5%
6 | Boc-Gln-Glu(0Bzl)Arg-Gly-Ala-Arg-Ala-Arg-Leu-NH2, HCl | 87 |  | 
7 | Boc-Glu(0Bzl)-Ser-Asn-Gln-Glu(0Bzl)-Arg-Gly-Ala-Arg-Ala-Arg-Leu-NH2, HCl | 90 |  | 
8 | Boc-IFTNS-NHNH2 |  | 78.8 | 
9 | Boc-IFTNS-OMe | 85.9 |  | 
10 | Boc-Ile-Phe-Thr-Asn-Ser-Tyr-Arg-Lys(Z)-Val-Leu-Gly-Gln-Leu-Ser-Ala-Arg(MTS)-Lys(Z)-Leu-Leu-Gln-Asp(0Bzl)-Ile-Met-Ser-Arg-Gln-Gln-Gly-Glu(0Bzl)-Ser-Asn-Gln-Glu(0Bzl)-Arg-Gly-Ala-Arg-Ala-Arg-Leu-NH2, HCl | 90 |  | 
11 | Boc-Ile-Phe-Thr-Asn-Ser-Tyr-Arg-Lys(Z)-Val-Leu-Gly-Gln-Leu-Ser-Ala-OCH3, HCl | 86 |  | crude HPLC purity (coupling step): EPP: 90%; step yield (coupling step, overall): 95%
12 | Boc-K(Cbz)VLG-OMe | 86 |  | 
13 | Boc-Leu-Gln-Asp(0Bzl)-Ile-Met-NH-NH2 |  | 78 | 
14 | Boc-Leu-Gln-Asp(0Bzl)-Ile-Met-NH-NH-Troc | 77 |  | 
15 | Boc-Leu-Gln-Asp(0Bzl)-Ile-Met-Ser-Arg-Gln-Gln-Gly-Glu(0Bzl)-Ser-Asn-Gln-Glu(0Bzl)-Arg-Gly-Ala-Arg-Ala-Arg-Leu-NH2, HCl | 87.16 |  | 
16 | Boc-QLSA-OMe |  |  | purity (crude or final not stated) (coupling step): EPP=91%
17 | Boc-SRQQG-OMe |  | 97.8 | 
18 | Boc-S[Arg(NO2)]QQG-OMe |  |  | step yield (coupling step, over 4 steps): 94.2%
19 | Boc-Tyr-Arg(HCl)-Lys(Z)-Val-Leu-Gly-OCH3 | 96 |  | purity (crude or final not stated) (coupling step): 93.81% EPP
20 | Boc-Tyr-Arg(Hcl)-Lys(Z)-Val-Leu-Gly-OH |  | 74.7 | purity (crude or final not stated) (late stage modification step): HPLC-EPP 91.52%
21 | Boc-Tyr-Arg(Z)-Val-Leu-Gly-Gln-Leu-Ser-Ala-OCH3, HCl | 90 |  | crude HPLC purity (coupling step): EPP: 92%
22 | Cbz-A[Arg(NO2)]A[Arg(NO2)]L-NH2 | 76 |  | 
23 | H-Ile-Phe-Thr-Asn-Ser-Tyr-Arg-Lys(Z)-Val-Leu-Gly-Gln-Leu-Ser-Ala-Arg(MTS)- Lys(Z)-Leu-Leu-Gln-Asp(0Bzl)-Ile-Met-Ser-Arg-Gln-Gln-Gly-Glu(0Bzl)-Ser-Asn- Gln-Glu(0Bzl)-Arg-Gly-Ala-Arg-Ala-Arg-Leu-NH2, HCl, TFA. |  | 100 | 
24 | H-Leu-Gln-Asp(0Bzl)-Ile-Met-Ser-Arg-Glu-Gln-Gly-Glu(0Bzl)-Ser-Asn-Gln-Glu(0Bzl)-Arg-Gly-Ala-Arg-Ala-Arg-Leu-NH2, TFA, HCl |  | 96.1 | 
25 | H-Tyr-Arg-Lys(Z)-Val-Leu-Gly-Gln-Leu-Ser-Arg-OCH3, HCl, TFA |  | 100 | 
26 | TFA H-Lys(Z)-Val-Leu-Gly-OCH3 |  | 94.7 | 
27 | TFA, H-Phe-Thr-Asn-Ser-OMe |  | 48.5 | 
28 | [Arg(NO2)]A[Arg(NO2)]L-NH2 | 85 |  | 
